PMC5818066

Amino acid sequences for entries named in this document (tags omitted). A change or cut given only in a name is not applied to a line headed by its entry.
UniProt O76447: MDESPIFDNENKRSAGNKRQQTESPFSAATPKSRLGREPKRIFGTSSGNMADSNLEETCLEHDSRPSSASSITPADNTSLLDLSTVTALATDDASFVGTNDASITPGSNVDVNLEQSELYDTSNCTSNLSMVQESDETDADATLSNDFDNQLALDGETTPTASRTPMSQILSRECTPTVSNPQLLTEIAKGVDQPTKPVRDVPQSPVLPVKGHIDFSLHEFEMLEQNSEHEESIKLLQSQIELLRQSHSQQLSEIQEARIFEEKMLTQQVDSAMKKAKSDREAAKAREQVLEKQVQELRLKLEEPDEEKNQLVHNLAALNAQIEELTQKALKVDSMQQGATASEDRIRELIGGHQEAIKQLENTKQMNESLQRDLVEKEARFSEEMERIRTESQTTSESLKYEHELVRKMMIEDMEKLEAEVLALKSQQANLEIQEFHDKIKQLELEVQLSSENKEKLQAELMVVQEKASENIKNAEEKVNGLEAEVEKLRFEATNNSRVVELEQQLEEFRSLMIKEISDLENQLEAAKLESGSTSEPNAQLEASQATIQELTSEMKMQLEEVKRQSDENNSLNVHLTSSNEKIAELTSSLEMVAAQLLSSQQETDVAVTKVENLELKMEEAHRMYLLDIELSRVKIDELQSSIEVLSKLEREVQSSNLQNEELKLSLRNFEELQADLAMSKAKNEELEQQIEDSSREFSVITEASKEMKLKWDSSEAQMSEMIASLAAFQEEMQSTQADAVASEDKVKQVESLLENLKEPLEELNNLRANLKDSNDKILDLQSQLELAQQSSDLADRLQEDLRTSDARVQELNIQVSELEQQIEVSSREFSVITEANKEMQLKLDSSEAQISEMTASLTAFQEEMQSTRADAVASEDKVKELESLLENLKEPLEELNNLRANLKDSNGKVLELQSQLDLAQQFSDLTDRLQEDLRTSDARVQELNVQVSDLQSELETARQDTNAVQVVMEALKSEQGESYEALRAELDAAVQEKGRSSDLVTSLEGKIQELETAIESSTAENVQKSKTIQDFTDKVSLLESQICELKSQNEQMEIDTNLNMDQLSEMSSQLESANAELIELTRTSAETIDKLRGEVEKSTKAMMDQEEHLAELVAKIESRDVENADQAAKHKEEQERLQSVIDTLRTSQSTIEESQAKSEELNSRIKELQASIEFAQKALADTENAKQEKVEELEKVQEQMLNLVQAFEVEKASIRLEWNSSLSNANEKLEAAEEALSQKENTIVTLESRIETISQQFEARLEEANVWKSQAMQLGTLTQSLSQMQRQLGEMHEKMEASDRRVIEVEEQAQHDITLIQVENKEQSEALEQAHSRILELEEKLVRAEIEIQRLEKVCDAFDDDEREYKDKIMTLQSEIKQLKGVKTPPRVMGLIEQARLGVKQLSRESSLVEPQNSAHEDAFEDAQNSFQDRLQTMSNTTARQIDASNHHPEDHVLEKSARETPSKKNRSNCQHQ

Target: T1, NUD-2 (C. elegans NudE/L homolog) (C. elegans) (UniProt O45717)
T1 sequence: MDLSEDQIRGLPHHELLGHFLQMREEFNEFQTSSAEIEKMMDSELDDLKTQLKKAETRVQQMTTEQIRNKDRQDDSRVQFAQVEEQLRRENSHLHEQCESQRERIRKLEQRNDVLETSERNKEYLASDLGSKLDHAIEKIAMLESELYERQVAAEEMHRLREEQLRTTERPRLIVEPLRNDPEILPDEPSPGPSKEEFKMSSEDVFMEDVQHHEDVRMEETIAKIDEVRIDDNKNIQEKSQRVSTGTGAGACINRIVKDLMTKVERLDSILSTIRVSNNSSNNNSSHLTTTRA
Experiment: two-hybrid; yeast two-hybrid (Matchmaker); bait in pGBKT7, prey in pGADT7; growth on -Leu/-Trp/-His plates selects for the interaction

Q: For “HCP-2 (CENP-F-like protein) (from UniProt Q22257)”, which binding is on record?
A: binds

Q: How did the binding turn out when “HCP-1 (CENP-F-like protein) (from UniProt O76447)” was run?
A: binds

Results are given in words; binding and its absence hold for the method and conditions named. A result given as binding can be weak or reduced; the word gives no strength.
